Changes are numbered by the printed parent chain. Results are given in words; binding and its absence hold for the method and conditions named. In cells and extracts the contact can be indirect. Some entries that bind do so weakly or less than the wild type. Tags and fused reporters may be left off the sequences shown.
Assays:
Assay in all cases: pull-down
[1] = biological target: T1, GST-BVRA (biliverdin reductase A, wild type) (human) (UniProt P53004)
T1 sequence: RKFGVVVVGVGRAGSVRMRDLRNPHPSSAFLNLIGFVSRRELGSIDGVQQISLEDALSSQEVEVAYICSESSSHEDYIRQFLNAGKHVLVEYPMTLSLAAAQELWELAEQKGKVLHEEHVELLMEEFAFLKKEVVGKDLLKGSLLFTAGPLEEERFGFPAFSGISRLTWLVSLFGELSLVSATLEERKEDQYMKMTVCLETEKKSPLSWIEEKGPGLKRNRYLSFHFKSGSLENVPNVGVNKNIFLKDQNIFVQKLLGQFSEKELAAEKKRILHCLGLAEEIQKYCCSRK

[2] = biological target: T2, GST-BVRB (biliverdin reductase B) (human) (UniProt P30043)
T2 sequence: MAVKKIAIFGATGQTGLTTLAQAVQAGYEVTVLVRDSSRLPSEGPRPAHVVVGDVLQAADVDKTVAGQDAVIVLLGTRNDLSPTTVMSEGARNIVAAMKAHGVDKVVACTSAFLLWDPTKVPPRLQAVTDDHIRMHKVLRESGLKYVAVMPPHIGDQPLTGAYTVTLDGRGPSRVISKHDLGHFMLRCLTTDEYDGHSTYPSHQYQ

GST-G17A-BVRA (human) = biological target: T3, GST-G17A-BVRA (human) (UniProt P53004)
T3 sequence: T1 sequence with G11A

- binding [1]: binds
- binding [2]: no binding
- binding (GST-G17A-BVRA (human)): binds
B1: GFP-Nrf2 (nuclear factor erythroid-derived factor-like 2) (protein, UniProt Q16236 1-605)
chain: MMDLELPPPGLPSQQDMDLIDILWRQDIDLGVSREVFDFSQRRKEYELEKQKKLEKERQEQLQKEQEKAFFAQLQLDEETGEFLPIQPAQHIQSETSGSANYSQVAHIPKSDALYFDDCMQLLAQTFPFVDDNEVSSATFQSLVPDIPGHIESPVFIATNQAQSPETSVAQVAPVDLDGMQQDIEQVWEELLSIPELQCLNIENDKLVETTMVPSPEAKLTEVDNYHFYSSIPSMEKEVGNCSPHFLNAFEDSFSSILSTEDPNQLTVNSLNSDATVNTDFGDEFYSAFIAEPSISNSMPSPATLSHSLSELLNGPIDVSDLSLCKAFNQNHPESTAEFNDSDSGISLNTSPSVASPEHSVESSSYGDTLLGLSDSEVEELDSAPGSVKQNGPKTPVHSSGDMVQPLSPSQGQSTHVHDAQCENTPEKELPVSPGHRKTPFTKDKHSSRLEAHLTRDELRAKALHIPFPVEKIINLPVVDFNEMMSKEQFNEAQLALIRDIRRRGKNKVAAQNCRKRKLENIVELEQDLDHLKDEKEKLLKEKGENDKSLHLLKKQLSTLYLEVFSMLRDEDGKPYSPSEYSLQQTRDGNVFLVPKSKKPDVKKN

— paper doi:10.1101/2025.06.04.657936
